Measured values taken from US6635631B2, “Iron compounds, compositions, methods of making the same and uses thereof” (Vitra Pharmaceuticals, Ltd., priority 1995, dated 2003).
For at least one compound, name, drawing or mass did not settle the structure.

Experiment: In vivo test in man: ICPOES analysis for iron in serum
Conditions: with 10% excess maltol, time 40 min, n = 2
Source text: A composition of the invention comprising ferric maltol chloride ([FeM]^++Cl2−) ie. a 1:1 iron:hydroxypyrone complex together with a small (10%) excess of moltol (uncomplexed hydroxypyrone).

SMILES: Cc1occc(=O)c1[O-].[Cl-].[Cl-].[Fe+3] [ferric maltol chloride]
- Iron concentration [Fe] (s.d.) in serum: 1297/12 (16.73) ppb
